Experimental findings from patent publication US10240255B2 (priority 2007, dated 2019) are described below.

For this data set, the system named is endothelial cells and PBMC.

Regarding `C=C(CC)C(=O)c1ccc(OCC(=O)O)c(Cl)c1Cl` [ethacrynic acid], the “toxicity to endothelial cells and PBMC” value was “toxicity”.
